Changes are numbered by the printed parent chain. These are yes or no findings as the source states them, for the method shown. Some results given as binding are weak or reduced against the parent protein; the word gives no strength.

By UniProt entry, the sequences of proteins in these tests, tags left out. Residues count along the entry.
UniProt P30530, residues 26-449: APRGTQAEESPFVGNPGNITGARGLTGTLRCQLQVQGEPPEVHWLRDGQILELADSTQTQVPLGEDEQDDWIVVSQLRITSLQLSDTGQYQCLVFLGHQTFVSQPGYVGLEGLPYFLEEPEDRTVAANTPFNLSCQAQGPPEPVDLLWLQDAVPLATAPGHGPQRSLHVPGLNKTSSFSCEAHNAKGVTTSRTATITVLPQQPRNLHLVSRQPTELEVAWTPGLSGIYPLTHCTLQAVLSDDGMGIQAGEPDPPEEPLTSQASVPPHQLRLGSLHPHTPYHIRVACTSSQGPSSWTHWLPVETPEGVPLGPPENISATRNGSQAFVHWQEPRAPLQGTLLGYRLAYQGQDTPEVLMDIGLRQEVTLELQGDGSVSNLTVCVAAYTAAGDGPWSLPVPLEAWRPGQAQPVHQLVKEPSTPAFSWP

B1: SEQ ID NO 365 (designed binder)
chain: NVSPPRRARVTDATETTITIRWKLAGSQVVGFQVDAVPANGQTPIQRTIKPDVRSYTITGLQPGTDYKIYLYTLTIRGGSAVGSSPVVIDAST
B2: SEQ ID NO 371 (designed binder)
chain: B1 chain with R21S, K23R, L24R, G26E, Q28T, T75N, V82A, G83A
B3: 1637111_AXLE06 (designed binder)
chain: B1 chain with K23A, L24V, A25S, G26P, Q28T, T75N, I76V, R77K, V82S, G83A
B4: SEQ ID NO 337 (designed binder)
chain: NVSPPRRARVTDATETTITIRWGTGFQVDAVPANGQTPIQRTIKRSITSYTITGLQPGTDYKIYLYTLNDNARSSPVVIDAST
B5: SEQ ID NO 356 (designed binder)
chain: B4 chain with R21S, G23K, T24V, G25R, K44T, R45S, I47V, T48R
B6: SEQ ID NO 359 (designed binder)
chain: B4 chain with R21S, G23Q, T24Q, T48S
B7: SEQ ID NO 362 (designed binder)
chain: B4 chain with G23S, T24I, S46D, I47A, T48P
B8: SEQ ID NO 350 (designed binder)
chain: B4 chain with R21S, G23P, T24A, S46G, I47K, T48R, S49T
B9: SEQ ID NO 341 (designed binder)
chain: NVSPPRRARVTDATETTITIRWELSRGTITGFQVDAVPANGQTPIQRTIKGAKRSYTITGLQPGTDYKIYLYTLNDNARSSPVVIDAST
B10: SEQ ID NO 345 (designed binder)
chain: B9 chain with S25P, R26A, I29V, T30N, S55G
B11: SEQ ID NO 367 (designed binder)
chain: B9 chain with R21S, E23G, S25P, I29V, T30N, S55V
B12: SEQ ID NO 342 (designed binder)
chain: B9 chain with E23G, L24P, R26Q, I29V, G31R, G51R, K53I, R54H, S55T
B13: 1637111_AXLG02 (designed binder)
chain: NVSPPRRARVTDATETTITIPWAAGIEANGEITGFQVDAVPANGQTPIQRTIKPDVRSYTITGLQPGTDYKIYLYTLYGAGKTSSPVVIDAST
B14: 1637110_AXLE11 (designed binder)
chain: NVSPPRRARVTDATETTITIRWAQVLSFQVDAVPANGQTPIQRTIKRDVHSYTITGLQPGTDYKIYLYTLNDNARSSPVVIDAST
B15: SEQ ID NO 358 (designed binder)
chain: B14 chain with A23S, L26P, S27G, K46T, R47S, V49I, S51I
B16: SEQ ID NO 357 (designed binder)
chain: B14 chain with Q24P, V25P, L26E, S27G, K46H, D48S, V49A, H50R
B17: 1637110_AXLF07 (designed binder)
chain: B14 chain with A23G, V25F, L26D, S27R, D48T
B18: SEQ ID NO 361 (designed binder)
chain: B14 chain with A23T, Q24L, V25G, S27G, V49A, S51V
B19: SEQ ID NO 364 (designed binder)
chain: NVSPPRRARVTDATETTITISWGLPRSKVVGFQVDAVPANGQTPIQRTIKPDVRSYTITGLQPGTDYKIYLYTLYGYVSGSSPVVIDAST
B20: SEQ ID NO 338 (designed binder)
chain: NVSPPRRARVTDATETTITIRWALPRSAFDRFQVDAVPANGQTPIQRTITTNIRAYTITGLQPGTDYKIYLYTLNDNARSSPVVIDAST
B21: SEQ ID NO 349 (designed binder)
chain: B20 chain with A28E, D30T, T51S, A55T
B22: SEQ ID NO 363 (designed binder)
chain: B20 chain with A28E, D30T, T51A, A55G
B23: SEQ ID NO 340 (designed binder)
chain: NVSPPRRARVTDATETTITIRWTVGGRANSTIPGFQVDAVPANGQTPIQRTITRDIHIYTITGLQPGTDYKIYLYTLNDNARSSPVVIDAST
B24: SEQ ID NO 372 (designed binder)
chain: NVSPPRRARVTDATETTITISWGLAPSQFARFQVDAVPANGQTPIQRTIKPDVRSYTITGLQPGTDYKIYLYTLNGYGRGQVASSPVVIDAST
B25: SEQ ID NO 332 (designed binder)
chain: NVSPPRRARVTDATETTITIRWAVPGFQVDAVPANGQTPIQRTIKRNVSVYTITGLQPGTDYKIYLYTLNDNARSSPVVIDAST
B26: SEQ ID NO 348 (designed binder)
chain: B25 chain with A23P, V24I, P25L, N47S, V48T, S49H, V50A
B27: SEQ ID NO 343 (designed binder)
chain: B25 chain with A23P, V24A, N47T, S49N
B28: SEQ ID NO 346 (designed binder)
chain: B25 chain with A23S, V24Q, K45A, N47A, V48T, S49R, V50A
B29: 1637110_AXLA12 (designed binder)
chain: B25 chain with A23K, P25D, K45H, N47G, V48I, S49T
B30: SEQ ID NO 373 (designed binder)
chain: B25 chain with A23G, K45H, N47A, V48T, S49N, V50I
B31: SEQ ID NO 344 (designed binder)
chain: B25 chain with R21T, V24G, G26E, K45H, N47G, V48I, S49T, V50S
B32: SEQ ID NO 336 (designed binder)
chain: B25 chain with R21S, A23P, N47D, S49N, V50S
B33: SEQ ID NO 334 (designed binder)
chain: B25 chain with A23K, P25L, K45A, N47G, V48A, S49R, V50T
B34: SEQ ID NO 335 (designed binder)
chain: B25 chain with A23K, V24G, P25A, G26Q, K45A, N47G, V48A, S49N
B35: SEQ ID NO 355 (designed binder)
chain: B25 chain with V24G, P25S, K45N, N47G, V48I, V50A
B36: SEQ ID NO 352 (designed binder)
chain: B25 chain with A23K, K45H, N47G, V48A, S49T
B37: SEQ ID NO 347 (designed binder)
chain: B25 chain with A23T, V24P, S49N
B38: SEQ ID NO 351 (designed binder)
chain: B25 chain with A23K, V24I, P25A, K45H, N47G, S49R, V50A
B39: 1637110_AXLH01 (designed binder)
chain: B25 chain with A23K, P25D, K45T, V48T, S49R, V50T
B40: SEQ ID NO 360 (designed binder)
chain: B25 chain with R21T, A23R, V24P, V48A, V50S
B41: SEQ ID NO 370 (designed binder)
chain: NVSPPRRARVTDATETTITIRWKKPKHDGGAKLTGFQVDAVPANGQTPIQRTIKPDVRSYTITGLQPGTDYKIYLYTLNTRGSGHVRSSPVVIDAST
B42: 1637111_AXLB09 (designed binder)
chain: NVSPPRRARVTDATETTITISWERSESTVVGLQVDAVPANGQTPIQRTIKPDVRSYTITGLQPGTDYKIYLYTLTVVGKSAHGSSPVVIDAST

For the test, the target named is Axl (UniProt P30530). Nature of the test: phage display selection.
On to B1, for which the binding entry is recorded as “binds”.

Turning to B2, the binding result was “binds”.

For B3, the binding entry is on record as “binds”.

For the molecule B4, the binding entry is reported as “binds”.

Consider B5, for which the binding result is recorded as “binds”.

In the case of B6, the binding result is recorded as “binds”.

In the case of B7, the binding result is given as “binds”.

Take B8: the binding result is “binds”.

As to B9, the binding result was “binds”.

B10: the binding result is “binds”.

Consider B11, for which the binding entry is “binds”.

B12: the binding result is on record as “binds”.

Turning to B13, the binding entry was “binds”.

In the case of B14, the binding entry is recorded as “binds”.

As for B15, the binding result is “binds”.

Take B16: the binding entry is “binds”.

As for B17, the binding result is recorded as “binds”.

For the molecule B18, the binding entry is listed as “binds”.

For B19, the binding entry is given as “binds”.

With B20, the binding result is “binds”.

As for B21, the binding result is reported as “binds”.

Take B22: the binding entry is reported as “binds”.

Take B23: the binding result was “binds”.

With B24, the binding entry was “binds”.

Regarding B25, the binding result is “binds”.

Regarding B26, the binding result is “binds”.

With B27, the binding result was “binds”.

Consider B28, for which the binding entry is reported as “binds”.

For the molecule B29, the binding entry is given as “binds”.

As to B30, the binding result was “binds”.

B31: the binding entry was “binds”.

Turning to B32, the binding result was “binds”.

Turning to B33, the binding result is recorded as “binds”.

As to B34, the binding result is “binds”.

As for B35, the binding entry is “binds”.

For B36, the binding result is recorded as “binds”.

For the molecule B37, the binding result is recorded as “binds”.

Regarding B38, the binding entry is recorded as “binds”.

Take B39: the binding entry is on record as “binds”.

For B40, the binding entry was “binds”.

Regarding B41, the binding entry is “binds”.

Consider B42, for which the binding result is listed as “binds”.

Values taken from patent publication US20110021746A1 (published 2011).
